Percent effect of library compounds

T. brucei: 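Whole-parasite assay of Trypanosoma brucei over 72 hours; the read-out is not stated. Concentration: 30 µM. Higher reads as stronger inhibition (inferred: compounds with an IC50 in retests scored well above the rest). Values scatter widely below zero; nearly all retest evidence comes from the higher of the two concentrations used. Of about 64,000 compounds tested this way, about 940 (1.5%) reached 50% or more in at least one test.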
Toxoplasma: 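Assay of Toxoplasma gondii numbers, read through their beta-galactosidase reporter with a colour substrate. Tested at 10 µM. Higher reads as fewer parasites (inferred from which compounds were picked for retests). About 67,000 compounds were tested under these conditions; 0.38% (about 260) showed 50% or more at least once.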

The filed quantity is “Percent Effect” (%). The controls that fix the scale are not given in the record; negative values are as filed. Compounds were drawn at random from those tested, without regard to their results. A dash means the value is not listed here; it may have been measured.

| SMILES | T. brucei | Toxoplasma |
|---|---|---|
| `[H][C@@]12CS(=O)(=O)C[C@]1([H])N(Cc1cccc(OCC(N)=O)c1)CCN2CCC` | -31.34% | -5.529% |
| `CC(C)NC(=O)N1CCCCCC1C1CCN(c2ncccn2)CC1` (stereo not given) | -11.52% | 0.2782% |
| `COCCCN(Cc1cnc(N2CCCC2)nc1)C1CCN(C)CC1` | -13.33% | -1.872% |
| `O=C1CCC2(CCCN(C(=O)c3ccc[nH]3)C2)CN1Cc1cccnc1` (stereo not given) | -17.36% | -4.599% |
| `Cc1cc(OCC(=O)N2CCCC(c3nc(C)c(C)s3)C2)no1` (stereo not given) | -1.071% | 6.794% |
| `CCN(CC)CCCNC(=O)C(C)n1cc(Br)cn1` (stereo not given) | - | 7.094% |
| `Cc1n[nH]c(C)c1CCN(C)C(=O)C(c1cccnc1)N1CCOCC1` (stereo not given) | -7.962% | -5.656% |
| `CCN(C)c1ncnc2c1CCN(Cc1ccncc1)CC2.O=C(O)C(F)(F)F.O=C(O)C(F)(F)F.O=C(O)C(F)(F)F` | 14.6% | 1.323% |
| `O=C(O)C(F)(F)F.O=C(O)C(F)(F)F.[H][C@@]12CN(CCOCC)C[C@H](C(=O)Nc3cccnc3)[C@]1([H])CCO2` | -32.37% | -12.72% |
| `CC(C)=CCN1CCC2(CC1)CC(=O)N(Cc1cc(F)cc(F)c1)C2` | -1.465% | 17.17% |
| `CCOCC(=O)N1CCC(C2CCN(Cc3ccc(Cl)cc3)C2)CC1` (stereo not given) | -15.47% | -3.659% |
| `Cc1cc(C(F)(F)F)cc(=O)n1CCCn1cnnn1` | - | -17.06% |
| `Cc1ccc(NC(=O)NC(C)Cn2cccn2)cc1` (stereo not given) | -22.13% | -15.06% |
| `O=C(NC1CCCN(c2ccc(OC(F)F)cc2)C1)c1c[nH]nn1` (stereo not given) | -37.47% | -6.561% |
| `COCCCSc1ccc(NC(=O)Nc2cn[nH]c2)cc1` | -40.17% | 1.957% |
| `O=C(O)C(F)(F)F.O=C(O)C(F)(F)F.c1cncc(COCc2nnn3c2CN(Cc2ccsc2)CC3)c1` | -31.93% | -12.48% |
| `CC1CN(CC(=O)Nc2cccnc2)CCN1c1nccs1` (stereo not given) | 14.49% | -0.6462% |
| `[H][C@@]12OCCN(C(=O)C3CCOCC3)[C@@]1([H])CC[C@@H]2OCc1ccncc1` | 24.29% | 14.33% |
| `O=C(O)[C@@H]1CN(C(=O)CSCCN2CCCC2)C[C@H]1c1ccccc1` | -27.14% | 3.623% |
| `O=C(NC[C@H]1OC[C@@H](NC(=O)C2CCCC2)[C@@H]1O)c1ccncc1` | -45.63% | 0.9172% |
| `Cc1cnc2[nH]c(C(F)(F)F)c(CN3CCSCC3)c2c1` | -17.26% | -5.493% |
| `CNCc1cc(F)ccc1Oc1ccc(F)cc1` | -17.97% | 15.53% |
| `CNC(=O)NC(=O)CN1CCN(CC2CC2)c2ccccc21` | -1.359% | -4.592% |
| `COc1cccc(COCC(=O)N2CCCC(n3ccnc3)C2)c1` (stereo not given) | -39.67% | 8.788% |
| `Cc1ccc(C(=O)NS(C)(=O)=O)cc1-n1cccc1` | -3.594% | -5.977% |
| `CCNC(=O)[C@@H]1CCCN1[C@@H](C(=O)NC)c1ccccc1OC.Cl` | 15.41% | -13.55% |
| `CCC(C)(C)NC(=O)C1CC(=O)N(CC2CC2)C1` (stereo not given) | -57.6% | 1.508% |
| `CN(Cc1ccncc1)C(=O)NCc1cn(-c2ccccc2)nn1` | -22.65% | -0.534% |
| `Cn1cc(C(=O)NCC(Cc2cccc(F)c2)N2CCCCC2=O)nn1` (stereo not given) | -37.5% | -26.78% |
| `Cc1cnn(CC2CCCN2C(=O)Cc2c(C)noc2Cl)c1` (stereo not given) | -14.63% | 18.71% |
| `COCCN1CCC(CNc2nc3ccccc3o2)CC1` | 5.631% | -7.951% |
| `CN(c1ncccc1CNC(=O)c1cscn1)C1CCCCC1` | -33.04% | -9.322% |
| `Cc1cc(NC(=O)CN2CCCC2c2c(C)nn(C)c2C)on1` (stereo not given) | -12.02% | -3.031% |
| `Cl.O=C(NC1CCCC1)c1ccnc(C2CCNCC2)c1` | 4.182% | -10.19% |
| `COc1ccnc(N2CCN(C(=O)c3ccn(C)c(=O)c3)CC2)n1` | -3.815% | -43.05% |
| `CC(=O)N1CCC(NC(=O)Cc2nc3nc(C)cc(C)n3n2)CC1` | -51.65% | 17.9% |
| `CCc1nnc2n1CCN(Cc1cc(Cl)c3c(c1)OCCCO3)C2` | - | 18.02% |
| `[H][C@]12CC[C@]([H])(CC(=O)NC1)N2C(=O)CCc1ccccc1` | -9.458% | 11.93% |
| `CCN1CCCc2cc(CN3CCc4nc(C)[nH]c(=O)c4C3)ccc21` | -15.36% | -0.566% |
| `COc1ccc(C(=O)N2CCC(c3nccn3C(C)C)CC2)cc1OC` | -10.35% | 12.49% |
| `CSCCC(O)C(=O)N1CCN(Cc2cccc(Cl)c2)CC1` (stereo not given) | 13.34% | 0.9265% |
| `COCCN(Cc1ccccc1)c1cc(C)ncn1` | 3.369% | 2.065% |
| `O=S(=O)(Cc1ccccc1)NCCc1nnc2n1CCC2` | -18.76% | 4.87% |

Data taken from ChEMBL document CHEMBL3988442, “University of Dundee, Small-Polar-MMV Screening Library” (2021).